PubChem BioAssay AID743454 – Peter MacCallum Cancer Centre, 2014

- Purpose: 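Knock-downs lowering viability or raising caspase 3/7 activity in vorinostat-treated resistant cells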 (primary screen)
- System: human HCT116-VR colon cancer cells, selected for vorinostat resistance
- Knock-down reagent: siRNA pool against human genes, 40 nM siRNA pool
- Timing: vorinostat for 24 h, read-out about 72 h after transfection
- Challenge: vorinostat at 2.5 µM final
- Measurement: 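Two measures, CellTiter-Fluor viability and luminescent caspase 3/7 activity, each as fold change against same-plate mock wells, mean of duplicates, then screen-wide robust z-score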
- Direction: viability robust z-score: higher = more viable cells than screen typical; caspase robust z-score: higher = more caspase 3/7 activity than screen typical
- Active means: 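Hits are knock-downs in viability class RV1/RV2 or caspase class CA1/CA2, excluding ones that killed cells in the no-drug cell-count arm; hits then retested with single siRNAs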
The deposit covers about 18,000 reagents; shown is a random part of them. Of all reagents, 450 (2.5%) got an active call. 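Single biological run; no consistent viability z cut-off exists, so the class columns, not z-scores, define the calls.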

CTNNBIP1 (catenin beta interacting protein 1) → viability hit class: no change; caspase hit class: no change; viability robust z-score: 0.14; caspase robust z-score: 0.91; Call: inactive
MYF5 (myogenic factor 5) → viability hit class: no change; caspase hit class: no change; viability robust z-score: -0.12; caspase robust z-score: 3.13; Call: inactive
EIF2B4 (eukaryotic translation initiation factor 2B subunit delta) → viability hit class: no change; caspase hit class: no change; viability robust z-score: -2.1; caspase robust z-score: -0.67; Call: inactive
RDH8 (retinol dehydrogenase 8) → viability hit class: no change; caspase hit class: no change; viability robust z-score: 0.7; caspase robust z-score: 0.18; Call: inactive
NNAT (neuronatin) → viability hit class: no change; caspase hit class: no change; viability robust z-score: -1.56; caspase robust z-score: 0.79; Call: inactive
IGFBP3 (insulin like growth factor binding protein 3) → viability hit class: no change; caspase hit class: no change; viability robust z-score: 0.82; caspase robust z-score: 1.57; Call: inactive
SNRPE (small nuclear ribonucleoprotein polypeptide E) → viability hit class: RV2 (reduced viability); caspase hit class: no change; viability robust z-score: -3.27; caspase robust z-score: 0.04; Call: active
TPRG1L (tumor protein p63 regulated 1 like) → viability hit class: no change; caspase hit class: no change; viability robust z-score: -0.63; caspase robust z-score: 0.34; Call: inactive
CHD1L (chromodomain helicase DNA binding protein 1 like) → viability hit class: no change; caspase hit class: no change; viability robust z-score: 0.5; caspase robust z-score: -0.74; Call: inactive
KCNQ2 (potassium voltage-gated channel subfamily Q member 2) → viability hit class: no change; caspase hit class: no change; viability robust z-score: -1.1; caspase robust z-score: 2.66; Call: inactive
IL15 (interleukin 15) → viability hit class: no change; caspase hit class: no change; viability robust z-score: 0.86; caspase robust z-score: 0.74; Call: inactive
DNALI1 (dynein axonemal light intermediate chain 1) → viability hit class: no change; caspase hit class: no change; viability robust z-score: 0.02; caspase robust z-score: -1.1; Call: inactive
SCEL (sciellin) → viability hit class: no change; caspase hit class: no change; viability robust z-score: -0.26; caspase robust z-score: 0.76; Call: inactive
KRT19 (keratin 19) → viability hit class: no change; caspase hit class: no change; viability robust z-score: 0.61; caspase robust z-score: -0.42; Call: inactive

Copied from above for reference:
CTNNBIP1 (catenin beta interacting protein 1) → viability hit class: no change; caspase hit class: no change; viability robust z-score: 0.14; caspase robust z-score: 0.91; Call: inactive
MYF5 (myogenic factor 5) → viability hit class: no change; caspase hit class: no change; viability robust z-score: -0.12; caspase robust z-score: 3.13; Call: inactive
